Laboratory results published in patent publication US9034439B2, “Synthesis and applications of soluble pentacene precursors and related compounds” (Academia Sinica, priority 2008, dated 2015).

What was measured:
[1] = Photochemical CO expulsion to pentacene in degassed THF; type: physicochemical
[2] = OTFT device with film made from spin-coated precursor (FET characteristics)
[3] = channel width 20 cm, length 10 μm
[4] = channel width 1 mm, channel length 5 μm

## O=C1[C@H]2c3cc4ccccc4cc3[C@H]1c1cc3ccccc3cc12 [Compound 1, reference compound]
[1]; 310 nm irradiation, degassed THF, similar photolysis protocol
  yield of pentacene: 12.6±0.6%
[2]; [3]
  field-effect mobility μ: 8.8×10^−3 cm^2 V^−1 s^−1
  on/off current ratio: ~1.2×10^5

## O=C1[C@@H]2c3ccccc3[C@@H]1c1cc3cc4ccccc4cc3cc12 [Compound 2]
[1]; 385 nm laser 10 mW/cm^2, 40 sec, ~1.2×10^−4 M in THF
  yield of pentacene production (pentacene produced per photon absorbed): 16.2±1.0%
[2]; [3]
  field-effect mobility μ: 1.2×10^−3 cm^2 V^−1 s^−1

## C1=C[C@@H]2c3cc4cc5cc6c(cc5cc4cc3[C@@H]1[C@]21OCCO1)[C@H]1C=C[C@@H]6[C@]12OCCO2 [Compound 16]
[2]; [4]
  field-effect mobility μ: 7.89×10^−6 cm^2/Vs
  on/off current ratio: 1.7×10^3
